Results from patent publication US20140287024A1, “NANOPARTICLE-BASED DELIVERY SYSTEM WITH OXIDIZED PHOSPHOLIPIDS AS TARGETING LIGANDS FOR THE PREVENTION, DIAGNOSIS AND TREATMENT OF ATHEROSCLEROSIS” (priority 2013, published 2014).
Some results were stated once for a whole list of compounds, not compound by compound. At least one compound was matched to its structure with a doubt left.

System: THP-1 derived macrophages
Assay: Cell viability assay (MTT)
Assay type: cell-based, human
Conditions: 5, 10, and 20 μM, 18 hours

For O=C(O[C@@H]1Cc2c(O)cc(O)cc2O[C@@H]1c1cc(O)c(O)c(O)c1)c1cc(O)c(O)c(O)c1 [EGCG, (−)-epigallocatechin-3-gallate], the cell viability was “more than 90%”.
